{
  "source": "paper doi:10.1101/755504",
  "about": "(bioRxiv, 2019)",
  "binders": {"B1": {"name": "GST-PDK1.1 (enzyme, Arabidopsis thaliana, UniProt Q9XF67 1-491, looked up)", "chain": "MLAMEKEFDSKLVLQGNSSNGANVSRSKSFSFKAPQENFTSHDFEFGKIYGVGSYSKVVRAKKKETGTVYALKIMDKKFITKENKTAYVKLERIVLDQLEHPGIIKLYFTFQDTSSLYMALESCEGGELFDQITRKGRLSEDEARFYTAEVVDALEYIHSMGLIHRDIKPENLLLTSDGHIKIADFGSVKPMQDSQITVLPNAASDDKACTFVGTAAYVPPEVLNSSPATFGNDLWALGCTLYQMLSGTSPFKDASEWLIFQRIIARDIKFPNHFSEAARDLIDRLLDTEPSRRPGAGSEGYVALKRHPFFNGVDWKNLRSQTPPKLAPDPASQTASPERDDTHGSPWNLTHIGDSLATQNEGHSAPPTSSESSGSITRLASIDSFDSRWQQFLEPGESVLMISAVKKLQKITSKKVQLILTNKPKLIYVDPSKLVVKGNIIWSDNSNDLNVVVTSPSHFKICTPKKVLSFEDAKQRASVWKKAIETLQNR"}},
  "target": "T1, YFP-D6PK (D6 PROTEIN KINASE) (Arabidopsis thaliana) (UniProt Q9FG74)",
  "T1 sequence": "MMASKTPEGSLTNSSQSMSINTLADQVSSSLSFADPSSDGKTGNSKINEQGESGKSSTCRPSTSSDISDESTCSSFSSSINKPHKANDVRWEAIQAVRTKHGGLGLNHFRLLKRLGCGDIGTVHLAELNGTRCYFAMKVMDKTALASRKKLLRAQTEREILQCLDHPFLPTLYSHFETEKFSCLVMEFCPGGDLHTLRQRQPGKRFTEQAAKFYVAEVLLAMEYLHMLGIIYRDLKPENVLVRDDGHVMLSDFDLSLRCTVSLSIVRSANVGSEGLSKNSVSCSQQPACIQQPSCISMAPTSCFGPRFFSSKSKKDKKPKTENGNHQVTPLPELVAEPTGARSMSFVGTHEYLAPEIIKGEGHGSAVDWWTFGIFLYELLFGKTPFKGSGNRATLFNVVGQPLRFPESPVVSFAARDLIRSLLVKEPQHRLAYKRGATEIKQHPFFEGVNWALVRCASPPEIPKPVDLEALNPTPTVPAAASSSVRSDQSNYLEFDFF",
  "assay": "co-IP",
  "note": "These are yes or no findings as the source states them, for the method shown. Binding seen in cells or lysates may run through a third protein. Some results given as binding are weak or reduced against the parent protein; the word gives no strength. Tags and fused reporters may be left off the sequences shown.",
  "data": [
    {"binder": "B1", "values": [
      {"measurement": "binding", "result": "binds"}
    ]}
  ]
}
